In PubChem BioAssay AID2685 (National Center for Advancing Translational Sciences (NCATS), 2010) one finds cell number change and AC50 data, which are given here for 18 compounds.

The other results are listed elsewhere or left out. Further columns of the screen follow, without active or inactive calls. Compounds called inactive in the main read-out are mostly missing here. Words in brackets tell the shape of the fitted curve; partial curves, single points and poor fits give uncertain potencies.

The assay in a line: qHTS Assay for Lipid Storage Modulators in Drosophila S3 Cells.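 On cell number change: cells counted by Cell Tracker Red CMTPX staining in the red channel.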 The note with it: BODIPY lipid droplet fluorescence, 18-24 h; for cell number change: measured here: cell count max response, cells fed with added oleic acid. In outline: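 Drosophila S3 cells got compounds at several concentrations plus oleic acid (400 uM solution). Laser-scanning cytometry with 488 nm excitation read lipid droplets at 500-530 nm and cells at 575-640 nm. Percent activity was relative to 20 uM Triacsin C.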

The mark [1] stands for this setting: measured here: cell number channel AC50, cells fed with added oleic acid.
The mark [2] stands for this setting: measured here: lipid fluorescence (Fed channel) AC50, cells fed with added oleic acid.

Take `FC(F)(F)c1ccccc1NC(=S)N1CCN(c2ccccn2)CC1`: the cell number change worked out at 18%.

As to `C#CCn1c(=NC(=O)c2ccc(S(=O)(=O)N3CCc4ccccc4C3)cc2)sc2cc(S(N)(=O)=O)ccc21`, the cell number change is -82.9%. Moreover, the AC50 under setting [1] is 7.31 µM [falling, partial curve]. In addition, under setting [2], the AC50 was 7.31 µM [falling, partial curve].

`Cc1ccc(C)c(S(=O)(=O)N2CCN(C(=O)Cc3ccccc3)CC2)c1`: the cell number change is -13.4%. The AC50 under setting [2] was 16.4 µM [rising, single point].

For the compound `CC(C(=O)NCc1cccs1)N1C(=O)c2ccccc2C1=O` (centres undefined), the cell number change worked out at 17.5%.

Consider `CC1CCCCC1NC(=O)c1cc2c(=O)n3ccccc3nc2n1C` (centres undefined), for which the cell number change worked out at 17.6%. Also, under setting [2], the AC50 was 1.03 µM [falling, partial curve].

As to `COCCn1c(C)cc(C(=O)CSc2nnnn2C2CCCC2)c1C`, the cell number change was 35.4%. Moreover, the AC50 under setting [1] was 18.4 µM [rising, partial curve].

Regarding `CCOC(=O)c1c(-c2ccc(F)cc2)csc1NC(=O)c1c(-c2ccccc2)noc1C`, the cell number change was -17.2%. In addition, the AC50 under setting [2] was 16.4 µM [falling, single point].

For `O=C(NCCc1ccc(F)cc1)c1cccc(NC(=O)c2ccccc2)c1`, the cell number change is -40.7%. In addition, the AC50 under setting [1] was 11.6 µM [falling, partial curve, poor fit].

On to `Cc1ccc(CN2C(=O)c3ccccc3NC2c2ccccn2)cc1` (centres undefined), for which the cell number change amounted to 16%. Further, the AC50 under setting [1] was 0.411 µM [rising, full curve, poor fit].

For `CCC(C)[C@H]1CNCCN1CC1(c2ccccc2)CC1` (some centres undefined), the cell number change was found to be 31.4%. Under setting [1], the AC50 was 0.366 µM [rising, full curve, poor fit].

As to `COc1ccccc1N1CCN(c2ncnc3c2oc2ccccc23)CC1`, the cell number change is -14.2%. The AC50 under setting [2] is 0.231 µM [rising, full curve, poor fit].

In the case of `CCNc1nc(OCCNC(C)=O)nc(N(C)C)n1`, the cell number change was found to be 1.17%. Besides, the AC50 under setting [2] is 0.116 µM [rising, full curve, poor fit].

As for `Cc1cc2nc3c(c(C(F)(F)F)n2n1)CCCC3`, the cell number change came out at 9.79%. Moreover, the AC50 under setting [2] was 16.4 µM [rising, partial curve, poor fit].

Take `CCOc1cccc(CNc2nnnn2C)c1`: the cell number change was 22%. The AC50 under setting [2] is 29.1 µM [rising, single point].

As to `CCOc1ccc(C2CC(c3cccc(OC)c3OC)n3nnnc3N2)cc1Cl` (centres undefined), the cell number change is 12.4%. In addition, under setting [1], the AC50 is 3.26 µM [rising, partial curve]. Moreover, the AC50 under setting [2] was 4.61 µM [rising, single point].

Turning to `CCOc1ccc(NC(=O)C2CCN(S(=O)(=O)c3ccc4c(c3)C(C)(C)C(=O)N4C)CC2)cc1`, the cell number change amounted to 16.2%.

On to `CCC1c2ccc(C)n2CCN1C(=O)Nc1ccc(F)cc1` (centres undefined), for which the cell number change is -3.06%.

On to `Cc1[nH]c(C)c(C(=O)/C=C/c2ccc([N+](=O)[O-])cc2)c1C`, for which the cell number change was -47.3%. For the same compound, the AC50 under setting [1] is 13 µM [falling, single point].
